Test results published in doi:10.1101/2023.11.30.569364.
These are yes or no findings as the source states them, for the method shown. In cells and extracts the contact can be indirect. Some binding calls cover weakened binding; strength is not graded here. Where a sequence is shown, tags or fusion partners need not be part of it.

The chains behind the UniProt entries cited, without tags or fusion partners. Where a name states a change or a piece, a line headed by the entry shows the natural chain unless it says otherwise. Residues count along the entry.
GST IE62 (1–200) (varicella-zoster virus (VZV)) (P09310, residues 1-200): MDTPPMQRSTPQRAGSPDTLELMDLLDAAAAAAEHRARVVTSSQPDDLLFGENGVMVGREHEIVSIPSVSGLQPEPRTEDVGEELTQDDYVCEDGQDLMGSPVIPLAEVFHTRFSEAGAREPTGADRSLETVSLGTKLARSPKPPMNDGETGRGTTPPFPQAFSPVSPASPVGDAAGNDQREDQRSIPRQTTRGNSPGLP
GST IE62 (1–86) (varicella-zoster virus (VZV)) (P09310, residues 1-86): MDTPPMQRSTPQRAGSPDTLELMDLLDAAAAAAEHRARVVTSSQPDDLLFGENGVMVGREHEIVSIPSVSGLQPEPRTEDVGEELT
UniProt Q9QR71: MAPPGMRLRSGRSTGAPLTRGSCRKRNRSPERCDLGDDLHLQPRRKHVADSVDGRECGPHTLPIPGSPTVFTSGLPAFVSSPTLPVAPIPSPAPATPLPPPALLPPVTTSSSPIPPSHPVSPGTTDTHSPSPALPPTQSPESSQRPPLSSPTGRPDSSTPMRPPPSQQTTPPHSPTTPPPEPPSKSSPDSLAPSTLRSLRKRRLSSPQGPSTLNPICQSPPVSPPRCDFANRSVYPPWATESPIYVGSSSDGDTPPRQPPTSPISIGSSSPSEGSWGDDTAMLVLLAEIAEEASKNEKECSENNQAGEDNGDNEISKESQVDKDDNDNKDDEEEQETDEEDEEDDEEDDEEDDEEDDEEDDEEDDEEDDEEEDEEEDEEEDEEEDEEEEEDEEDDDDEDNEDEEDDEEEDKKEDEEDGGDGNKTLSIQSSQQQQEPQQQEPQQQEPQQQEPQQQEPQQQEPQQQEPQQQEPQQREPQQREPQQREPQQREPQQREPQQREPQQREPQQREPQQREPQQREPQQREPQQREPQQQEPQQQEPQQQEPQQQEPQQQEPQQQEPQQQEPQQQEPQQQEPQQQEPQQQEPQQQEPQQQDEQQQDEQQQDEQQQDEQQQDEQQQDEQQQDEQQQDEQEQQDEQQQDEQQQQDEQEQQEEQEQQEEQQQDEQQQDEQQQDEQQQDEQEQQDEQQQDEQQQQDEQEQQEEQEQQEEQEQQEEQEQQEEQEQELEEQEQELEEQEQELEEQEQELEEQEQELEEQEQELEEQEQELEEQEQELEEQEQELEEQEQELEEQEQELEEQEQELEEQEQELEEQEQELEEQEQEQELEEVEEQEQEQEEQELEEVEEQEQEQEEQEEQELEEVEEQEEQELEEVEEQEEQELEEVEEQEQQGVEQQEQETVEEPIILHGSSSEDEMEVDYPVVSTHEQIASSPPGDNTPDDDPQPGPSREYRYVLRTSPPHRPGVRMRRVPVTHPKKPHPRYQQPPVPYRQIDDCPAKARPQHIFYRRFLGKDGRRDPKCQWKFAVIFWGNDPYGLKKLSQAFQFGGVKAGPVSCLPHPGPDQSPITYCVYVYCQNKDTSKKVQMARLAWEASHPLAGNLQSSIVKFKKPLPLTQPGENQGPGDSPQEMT

How the values were obtained:
Assay in all cases: pull-down
[1] = target: GST IE62 (1–200) (varicella-zoster virus (VZV)) (UniProt P09310)
[2] = target: GST IE62 (1–86) (varicella-zoster virus (VZV)) (UniProt P09310)
[3] = target: GST Lana-1 (280–297) (Kaposi's sarcoma-associated herpesvirus (KSHV)) (UniProt Q9QR71)

Measured: binding

B1: human MED25 ACID domain (391–548)-6xHis (domain or fragment, UniProt Q71SY5 391-548)
chain: GQQSVSNKLLAWSGVLEWQEKPKPASVDANTKLTRSLPCQVYVNHGENLKTEQWPQKLIMQLIPQQLLTTLGPLFRNSRMVQFHFTNKDLESLKGLYRIMGNGFAGCVHFPHTAPCEVRVLMLLYSSKKKIFMGLIPYDQSGFVNGIRQVITNHKQVQ
binds: all assays above
